Results: US20210348152A1 (TECHNION RESEARCH AND DEVELOPMENT FOUNDATION, published 2021)
No constants are given. Whether binding was seen depends on the method and setting. Some binding calls cover weakened binding; strength is not graded here.

Amino acid sequences for entries named in this document (tags omitted).
UniProt P19838: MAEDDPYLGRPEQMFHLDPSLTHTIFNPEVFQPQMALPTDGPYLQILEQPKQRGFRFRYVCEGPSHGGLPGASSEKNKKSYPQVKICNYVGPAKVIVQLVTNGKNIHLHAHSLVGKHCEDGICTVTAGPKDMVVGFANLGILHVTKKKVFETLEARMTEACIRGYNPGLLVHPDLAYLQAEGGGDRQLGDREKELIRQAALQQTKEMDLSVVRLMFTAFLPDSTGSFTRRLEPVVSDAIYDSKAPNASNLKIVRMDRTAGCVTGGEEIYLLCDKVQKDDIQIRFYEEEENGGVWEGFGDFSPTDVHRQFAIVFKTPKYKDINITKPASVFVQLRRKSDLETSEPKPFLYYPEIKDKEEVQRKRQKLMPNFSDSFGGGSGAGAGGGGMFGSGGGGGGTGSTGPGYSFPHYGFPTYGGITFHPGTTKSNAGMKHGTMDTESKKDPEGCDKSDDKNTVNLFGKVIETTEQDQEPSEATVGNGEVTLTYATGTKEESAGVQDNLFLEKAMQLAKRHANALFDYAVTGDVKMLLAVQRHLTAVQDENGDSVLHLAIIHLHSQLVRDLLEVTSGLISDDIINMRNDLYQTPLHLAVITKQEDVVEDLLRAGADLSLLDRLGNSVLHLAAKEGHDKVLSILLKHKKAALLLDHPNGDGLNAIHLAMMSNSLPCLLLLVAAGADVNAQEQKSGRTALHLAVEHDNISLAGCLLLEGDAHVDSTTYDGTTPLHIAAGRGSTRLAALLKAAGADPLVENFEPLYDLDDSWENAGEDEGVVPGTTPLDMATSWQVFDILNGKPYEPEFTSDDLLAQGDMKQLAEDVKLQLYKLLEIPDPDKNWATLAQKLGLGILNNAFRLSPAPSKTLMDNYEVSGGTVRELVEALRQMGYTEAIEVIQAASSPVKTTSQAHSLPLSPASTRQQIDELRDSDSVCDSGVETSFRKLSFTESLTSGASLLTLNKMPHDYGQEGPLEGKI

What was measured:
[1] = target: In vitro translated and 35S-labeled p105 (UniProt P19838); assay: words of the legend; peptide competition in cell-free ubiquitination of 35S-p105 (FIG. 6)
[2] = target: In vitro translated and 35S-labeled p105 (UniProt P19838); assay: words of the legend; peptide competition in cell-free ubiquitination of 35S-p105 (FIG. 5)

binding [1] | binding [2] | Binder
binds | – | WILVRLW [WILVRLW peptide (non-modified)]
– | binds | WILVRLW (N-terminal amidation and C-terminal acetylation (so in the source)) [Amid-WILVRLW-Ac]
